US20060270596A1
These are yes or no findings as the source states them, for the method shown. Binding seen in cells or lysates may run through a third protein. Some entries that bind do so weakly or less than the wild type. Tags and fused reporters may be left off the sequences shown.

Chains of the proteins cited; added tags and fusions are not shown. Lines headed by an entry give the natural chain unless they say otherwise; changes in a name come on top. Residues count along the entry.
UniProt O00585: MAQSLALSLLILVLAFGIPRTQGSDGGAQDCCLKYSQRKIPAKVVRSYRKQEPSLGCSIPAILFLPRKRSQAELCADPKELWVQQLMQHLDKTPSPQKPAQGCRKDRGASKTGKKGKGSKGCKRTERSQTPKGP
UniProt P13500: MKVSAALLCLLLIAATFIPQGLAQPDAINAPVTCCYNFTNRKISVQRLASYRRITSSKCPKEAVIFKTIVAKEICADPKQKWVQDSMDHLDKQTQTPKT
UniProt Q99616: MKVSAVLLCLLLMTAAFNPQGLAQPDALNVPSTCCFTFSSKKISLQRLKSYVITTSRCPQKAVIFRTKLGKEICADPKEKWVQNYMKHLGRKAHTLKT
UniProt P48061, residues 1-89: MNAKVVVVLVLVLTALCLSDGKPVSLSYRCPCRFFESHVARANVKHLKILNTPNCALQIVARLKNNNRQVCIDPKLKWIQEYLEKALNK

T1: GST-Par4DD fusion protein (Par4 amino acids 250-342) (human) (UniProt Q96IZ0)
T1 sequence: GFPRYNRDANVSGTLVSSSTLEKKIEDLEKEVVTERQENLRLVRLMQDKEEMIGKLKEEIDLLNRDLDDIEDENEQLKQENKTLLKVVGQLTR

T2: GST-THAP1 fusion protein (THAP1 amino acids 1-213) (human)
T2 sequence: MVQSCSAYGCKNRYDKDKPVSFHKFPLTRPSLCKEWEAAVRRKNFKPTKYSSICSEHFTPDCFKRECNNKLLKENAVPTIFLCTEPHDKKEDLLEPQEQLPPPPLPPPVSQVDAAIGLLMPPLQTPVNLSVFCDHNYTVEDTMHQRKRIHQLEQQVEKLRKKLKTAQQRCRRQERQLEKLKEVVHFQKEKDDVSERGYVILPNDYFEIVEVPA

T3: human chemokine MIG/CXCL9, mature form (amino acids 23-125) (human) (UniProt Q07325)
T3 sequence: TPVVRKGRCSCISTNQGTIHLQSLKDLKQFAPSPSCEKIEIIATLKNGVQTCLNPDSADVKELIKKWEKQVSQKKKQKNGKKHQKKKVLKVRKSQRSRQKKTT


Key:
[1] = target: T1, GST-Par4DD fusion protein (Par4 amino acids 250-342) (human); assay: GST pull-down, 35S-labelled in vitro translated mutant
[2] = target: T2, GST-THAP1 fusion protein (THAP1 amino acids 1-213) (human); assay: as above
[3] = target: T1, GST-Par4DD fusion protein (Par4 amino acids 250-342) (human); assay: GST pull-down: in vitro translated 35S-labelled protein on GST-Par4DD immobilised on glutathione sepharose, SDS-PAGE, fluorography
[4] = target: T2, GST-THAP1 fusion protein (THAP1 amino acids 1-213) (human); assay: GST pull-down: in vitro translated 35S-labelled protein on GST-THAP1 immobilised on glutathione sepharose, SDS-PAGE, fluorography
[5] = target: human chemokine SLC/CCL21, mature form (amino acids 24-134) (human) (UniProt O00585); assay: GST pull-down, 35S-labelled in vitro translated chemokine
chemokine CCL2 [6] = target: chemokine CCL2 (UniProt P13500); assay: as above
chemokine CCL13 = chemokine CCL13 (UniProt Q99616); assay: as above
[7] = target: T3, human chemokine MIG/CXCL9, mature form (amino acids 23-125) (human); assay: GST pull-down: in vitro translated 35S-labelled chemokine or cytokine on the GST fusion immobilised on glutathione sepharose, SDS-PAGE, fluorography
[8] = target: human chemokine SLC/CCL21, mature form (amino acids 24-134) (human) (UniProt O00585); assay: as above
chemokine CCL2 [9] = target: chemokine CCL2 (UniProt P13500); assay: as above
chemokine CXCL12 [10] = target: chemokine CXCL12 (UniProt P48061); assay: as above
[11] = target: T3, human chemokine MIG/CXCL9, mature form (amino acids 23-125) (human); assay: GST pull-down, 35S-labelled in vitro translated chemokine
chemokine CXCL12 [12] = target: chemokine CXCL12 (UniProt P48061); assay: as above
[13] = target: T1, GST-Par4DD fusion protein (Par4 amino acids 250-342) (human); assay: GST pull-down, 35S-labelled in vitro translated THAP3 on GST-Par4DD (FIG. 10C)

| binding [1] | binding [2] | binding [3] | binding [4] | binding [5] | binding (chemokine CCL2 [6]) | Binder | other results |
| --- | --- | --- | --- | --- | --- | --- | --- |
|  |  |  |  | binds | binds | GST-THAP1 126-213 (chemokine-binding domain of THAP1, positive control) (protein, not shown: a dimerising Fc or GST) PVNLSVFCDHNYTVEDTMHQRKRIHQLEQQVEKLRKKLKTAQQRCRRQERQLEKLKEVVHFQKEKDDVSERGYVILPNDYFEIVEVPA | binding [7]: binds; binding [8]: binds; binding (chemokine CCL2 [9]): binds; binding (chemokine CXCL12 [10]): binds; binding [11]: binds; binding (chemokine CXCL12 [12]): binds |
|  |  | binds |  |  |  | human THAP3, full length (protein) MPKSCAARQCCNRYSSRRKQLTFHRFPFSRPELLKEWVLNIGRGNFKPKQHTVICSEHFRPECFSAFGNRKNLKHNAVPTVFAFQDPTQQVRENTDPASERGNASSSQKEKVLPEAGAGEDSPGRNMDTALEELQLPPNAEGHVKQVSPRRPQATEAVGRPTGPAGLRRTPNKQPSDHSYALLDLDSLKKKLFLTLKENEKLRKRLQAQRLVMRRMSSRLRACKGHQGLQARLGPEQQS | binding [13]: binds |
|  |  |  |  | binds | binds | GST-THAP7 233-309 (chemokine-binding domain of THAP7) (protein, not shown: a dimerising Fc or GST) QVGSALLWKRRAEAALDALDKAQRQLQACKRREQRLRLRLTKLQQERAREKRAQADARQTLKEHVQDFAMQLSSSMA | binding (chemokine CCL13): binds |

The remaining lines, values behind:

| Binder | binding [1] | binding [2] | binding [3] | binding [4] | binding [5] | binding (chemokine CCL2 [6]) | other results |
| --- | --- | --- | --- | --- | --- | --- | --- |
| THAP1-C1 deletion mutant (amino acids 90-213) (protein) KEDLLEPQEQLPPPPLPPPVSQVDAAIGLLMPPLQTPVNLSVFCDHNYTVEDTMHQRKRIHQLEQQVEKLRKKLKTAQQRCRRQERQLEKLKEVVHFQKEKDDVSERGYVILPNDYFEIVEVPA | binds | binds | binds | binds |  |  |  |
| GST-THAP8 125-274 (chemokine-binding domain of THAP8) (protein, not shown: a dimerising Fc or GST) SGPVRLVVLGPTSGSPKTVATMLLTPLAPAPTPERSQPEVPAQQAQTGLGPVLGALQRRVRRLQRCQERHQAQLQALERLAQQLHGESLLARARRGLQRLTTAQTLGPEESQTFTIICGGPDIAMVLAQDPAPATVDAKPELLDTRIPSA |  |  |  |  | binds | binds | binding (chemokine CCL13): binds |
| THAP1-C2 deletion mutant (amino acids 120-213) (protein) MPPLQTPVNLSVFCDHNYTVEDTMHQRKRIHQLEQQVEKLRKKLKTAQQRCRRQERQLEKLKEVVHFQKEKDDVSERGYVILPNDYFEIVEVPA | binds | binds | binds | binds |  |  |  |
| THAP1-N3 deletion mutant (amino acids 1-192) (protein) MVQSCSAYGCKNRYDKDKPVSFHKFPLTRPSLCKEWEAAVRRKNFKPTKYSSICSEHFTPDCFKRECNNKLLKENAVPTIFLCTEPHDKKEDLLEPQEQLPPPPLPPPVSQVDAAIGLLMPPLQTPVNLSVFCDHNYTVEDTMHQRKRIHQLEQQVEKLRKKLKTAQQRCRRQERQLEKLKEVVHFQKEKDD | binds | binds | binds | binds |  |  |  |
| THAP1-C3 deletion mutant (amino acids 143-213) (protein) MHQRKRIHQLEQQVEKLRKKLKTAQQRCRRQERQLEKLKEVVHFQKEKDDVSERGYVILPNDYFEIVEVPA | binds | binds | binds | binds |  |  |  |
